PubChem BioAssay AID1224826 | NIAID, 2016

Screen: 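Knock-downs that raise or lower Tnf reporter signal after endotoxin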 (primary screen)
System: RAW264.7 G9 macrophages from mouse bearing reporters for p65 (GFP) and the Tnf promoter (mCherry)
Knock-down reagent: siRNA pool against mouse genes, 100 nM
Duration: 16 h of LPS stimulation, after 2 days of siRNA transfection
Conditions: bacterial lipopolysaccharide (Salmonella minnesota R595), 10 ng/ml
Measured: 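Nuclear mCherry signal of the Tnf promoter reporter measured by imaging after background removal, scaled to each plate median and turned into robust z-scores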
Reading the numbers: Tnf reporter robust z-score: higher = stronger Tnf promoter reporter signal after LPS
Rule for the call: 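Called active when robust z-score is at most -1.3, matching the median of the Tlr4 knock-down control, or over 3; control wells and wells with under 50 cells never active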
Calls: active = Tnf reporter clearly lowered or raised; inactive = no clear change in Tnf reporter
In all, the deposit lists about 17,000 reagents; this is a random part of them. In the full data, about 1,110 (6.6%) were called active. 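Active means lowered or raised reporter signal; replicate intensities are raw and not normalised per plate.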 Not all columns of the deposit are shown.

Psmb10 (proteasome (prosome, macropain) subunit, beta type 10) showed Tnf reporter robust z-score 0.34; fewer than 50 cells in well enough cells in well; inactive. Smim12 (small integral membrane protein 12) scored Tnf reporter robust z-score -0.7; fewer than 50 cells in well enough cells in well; inactive. Depletion of Or51a5 (olfactory receptor family 51 subfamily A member 5) came out at: Tnf reporter robust z-score -1.47; fewer than 50 cells in well enough cells in well; active. Silencing of Tigd5 (tigger transposable element derived 5) resulted in: Tnf reporter robust z-score -0.31; fewer than 50 cells in well enough cells in well; inactive. For Rbak (RB-associated KRAB zinc finger), the values are Tnf reporter robust z-score -0.15; fewer than 50 cells in well enough cells in well; inactive. For Nkapl (NFKB activating protein-like), the values are Tnf reporter robust z-score 0.55; fewer than 50 cells in well enough cells in well; inactive.

Against Tub (TUB bipartite transcription factor), the entry reads Tnf reporter robust z-score -0.05; fewer than 50 cells in well enough cells in well; inactive. With knock-down of Rars2 (arginyl-tRNA synthetase 2, mitochondrial), the record shows Tnf reporter robust z-score -0.29; fewer than 50 cells in well enough cells in well; inactive. Silencing of Bivm (basic, immunoglobulin-like variable motif containing) came out at: Tnf reporter robust z-score 1.15; fewer than 50 cells in well enough cells in well; inactive. Fn3krp (fructosamine 3 kinase related protein) showed Tnf reporter robust z-score -0.46; fewer than 50 cells in well enough cells in well; inactive. Klhl15 (kelch-like 15) gave Tnf reporter robust z-score 1.81; fewer than 50 cells in well enough cells in well; inactive. With knock-down of Wnt3 (WNT family member 3), the screen gave Tnf reporter robust z-score 0.71; fewer than 50 cells in well enough cells in well; inactive.

3 neighbouring entries from above, quoted:
Psmb10 (proteasome (prosome, macropain) subunit, beta type 10) → Tnf reporter robust z-score: 0.34; fewer than 50 cells in well: enough cells in well; activity call: inactive
Smim12 (small integral membrane protein 12) → Tnf reporter robust z-score: -0.7; fewer than 50 cells in well: enough cells in well; activity call: inactive
Or51a5 (olfactory receptor family 51 subfamily A member 5) → Tnf reporter robust z-score: -1.47; fewer than 50 cells in well: enough cells in well; activity call: active

The list goes on.
After knock-down of Parp1 (poly (ADP-ribose) polymerase family, member 1) the results were Tnf reporter robust z-score -1.09; fewer than 50 cells in well enough cells in well; inactive. Tmem54 (transmembrane protein 54) scored fewer than 50 cells in well fewer than 50 cells per well; well left out of calls; inactive. Phb2 (prohibitin 2) scored fewer than 50 cells in well fewer than 50 cells per well; well left out of calls; inactive. Knock-down of Or5g27 (olfactory receptor family 5 subfamily G member 27) resulted in: Tnf reporter robust z-score -0.11; fewer than 50 cells in well enough cells in well; inactive. With knock-down of Sprr2d (small proline-rich protein 2D), the record shows Tnf reporter robust z-score 0.06; fewer than 50 cells in well enough cells in well; inactive. Against Trpm5, the values are Tnf reporter robust z-score 0.11; fewer than 50 cells in well enough cells in well; inactive.

Nlgn3 (neuroligin 3) gave Tnf reporter robust z-score -0.94; fewer than 50 cells in well enough cells in well; inactive. For Lst1 (leukocyte specific transcript 1), the entry reads Tnf reporter robust z-score -1.1; fewer than 50 cells in well enough cells in well; inactive. After knock-down of Suox (sulfite oxidase), the record shows Tnf reporter robust z-score -0.6; fewer than 50 cells in well enough cells in well; inactive.
